# Assay results taken from patent US11369659B2, “Method of enhancing a brain or cognitive function” (Brainon Inc., priority 2015, dated 2022).
# System: scopolamine-induced memory deterioration
# Test: step-through passive avoidance test
# Format: in vivo, ICR mice
# Conditions: scopolamine-injected group compared with normal saline-treated group (180 seconds, maximum cut-off time)
# Experimental: Louis, Mo., USA). 4-week-old male ICR mice were purchased from Korean BioLink Co. (Chungbuk, Korea). After an adaptation period of one week, the mice were used in a test and all reagents were administered intraperitoneally. […] A passive avoidance test was performed in the same bright room and dark room. A floor of each room was formed in a shape in which 2-mm stainless steel rods were separated from each other at 1-cm intervals. Bright squares (20×20×20 cm) had 100-W bulbs. These squares were connected to a guillotine door. For an acquisition trial, the mouse was placed in the bright room after injection of the reagents and the door was opened after 10 seconds. When the mouse completely entered the dark room, the door was closed and electric shock was applied for 3 seconds. A retention trial was performed after 24 hours of the acquisition trial and the mouse was positioned in the bright room. A latency time of the acquisition and retention trials was measured by a time until the mouse entered the dark room of the box after the door was opened. The retention latency in the passive avoidance test represents a long-term memory function in rodents.
structure (smiles),measurement,value
"CN1[C@@H]2C[C@@H](OC(=O)[C@H](CO)c3ccccc3)C[C@H]1[C@@H]1O[C@@H]12 [scopolamine, Scopolamine, reference compound]",average of the step-through responses (retention latency),significantly lowered
